# PubChem BioAssay AID624297 (National Center for Advancing Translational Sciences (NCATS), 2012)
# Out of some 340,000 compounds screened, about 6,200 (1.8%) were called active. Inconclusive means that the source gave no clear call. Such entries were picked first, then a sample of the others. Calls come from the whole dose curve; as a rule, active = well fitted activation curve with a large enough effect; inconclusive = small, poorly fitted or top-dose-only effect; inactive = no such curve, though single readings can be large or run the other way. A potency beside an inconclusive call is a rough fit, not a confirmed value.
# Experiment: A quantitative high throughput screen for small molecules that induce DNA re-replication in SW480 colon adenocarcinoma cells. Note: nearly all actives have a fitted effect of over 55% in size.
# Conditions: Hoechst DNA content imaging, 48 h; series mostly up to 46.1 µM
# Method in brief: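 First, 250 cells per well were seeded. Next, compound or vehicle (23 nL) was pinned in, plates sat 48 hr at 37 C. Finally Hoechst was added for 40 min before fluorescence scanning.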
# Potency is the fitted concentration of half-maximal effect.
row,SMILES,Potency
1,O=c1c2ccccc2ncn1-c1cccc(Br)c1,"inconclusive: 29.1 µM [activator, single point]"
2,COc1cccc(Oc2c(C)oc3c(CN4CCOCC4)c(O)ccc3c2=O)c1,inactive
3,CCCn1nnc(NC(=O)c2cc(Br)cc(Br)c2OC)n1,inactive
4,Cc1nn2c(-c3ccccn3)ccnc2c1Br,"inconclusive: 25.9 µM [activator, partial curve, poor fit]"
5,Cc1ccc(CN=C(Nc2ccccc2)NC2CCCCC2)cc1,inactive
6,CC1=C([N+](=O)[O-])C(c2ccccc2)C2=C(N1)c1ccccc1C2=O (stereo not drawn),"inconclusive: 0.461 µM [activator, partial curve, poor fit]"
7,CN(C(=O)COC(=O)c1ccc(C(C)(C)C)cc1)C1CCS(=O)(=O)C1 (stereo not drawn),inactive
8,Cc1cc(O)c(C(C)C)cc1C1(c2cc(C(C)C)c(O)cc2C)OC(=O)c2ccccc21,"inconclusive: 29.1 µM [activator, single point]"
9,COc1ccc(C2CC(=O)C3=C(C2)Nc2ccccc2N(C(=O)CCC(=O)O)C3c2ccc(F)cc2)cc1 (stereo not drawn),"inconclusive: 0.0164 µM [activator, full curve, poor fit]"
10,Nc1nnc(CC(=O)N/N=C/c2ccccc2OCc2ccc(F)cc2)s1,"inconclusive: 18.4 µM [activator, single point]"
11,O=C1C=C(Nc2ccccc2)C(=O)c2ccccc21,"inconclusive: 32.6 µM [activator, partial curve, poor fit]"
12,COCCNC(=O)Cn1c(=O)n(CCCC(=O)NCc2ccc3c(c2)OCO3)c(=O)c2sccc21,inactive
13,CS(=O)(=O)N1CCCC(C(=O)Nc2ccccc2Cl)C1 (stereo not drawn),inactive
14,Cn1c(N2CCN(C(c3ccccc3)c3ccccc3)CC2)nc2ccccc21,"inconclusive: 6.51 µM [activator, single point]"
15,COc1cccc(NC(=S)N(CCc2c(C)[nH]c3ccc(C)cc23)Cc2cccs2)c1,"inconclusive: 23.1 µM [activator, partial curve, poor fit]"
16,Cc1cc2ncn(/N=C/c3ccc([N+](=O)[O-])o3)c2cc1C,active: 20.6 µM
17,CSc1nnc(C(C)(C)C)c(=O)n1/N=C/c1ccc(Cl)cc1,"inconclusive: 0.326 µM [activator, partial curve, poor fit]"
18,CC(C)N(C(=O)COC(=O)c1ccccc1C(=O)c1ccc(Cl)c([N+](=O)[O-])c1)C(C)C,"inconclusive: 29.1 µM [activator, single point]"
19,O=[N+]([O-])c1ccc(C2Nc3cccc4cccc(c34)N2)cc1,inactive
20,Cc1cc(-c2nnc(CCC(=O)N(C)C(C)c3cccs3)o2)no1 (stereo not drawn),inactive
21,Cc1cccc(/C=N/NC(=O)c2cccc([N+](=O)[O-])c2)n1,"inconclusive: 20.6 µM [activator, single point]"
22,Oc1cccc(C=NCc2ccccc2)c1O,"inconclusive: 29.1 µM [activator, single point]"

# Laid out differently: 3 of the compounds above
row	SMILES	Potency
13	CS(=O)(=O)N1CCCC(C(=O)Nc2ccccc2Cl)C1 (stereo not drawn)	inactive
14	Cn1c(N2CCN(C(c3ccccc3)c3ccccc3)CC2)nc2ccccc21	inconclusive: 6.51 µM [activator, single point]
15	COc1cccc(NC(=S)N(CCc2c(C)[nH]c3ccc(C)cc23)Cc2cccs2)c1	inconclusive: 23.1 µM [activator, partial curve, poor fit]

# Additional entries follow.

row,SMILES,Potency
1,O=C(NCC1CCN(Cc2ccccc2Cl)CC1)Nc1cccc(Cl)c1,"inconclusive: 29.1 µM [activator, single point]"
2,Cc1noc(C)c1COC(=O)COc1ccc(C#N)cc1,"inconclusive: 3.66 µM [activator, partial curve, poor fit]"
3,N#CC(=C1C=CC(=NO)C(Cl)=C1)c1ccc(Cl)cc1,"inconclusive: 20.6 µM [activator, single point]"
4,CCNC(=S)Nc1cc(Cl)ccc1Oc1ccccc1,"inconclusive: 1.46 µM [activator, partial curve, poor fit]"
5,COc1ccc(CN(CCC(c2ccccc2)C2CCOC(C)(C)C2)C(C)=O)cc1 (stereo not drawn),"inconclusive: 20.6 µM [activator, partial curve, poor fit]"
6,C/C(=N\NC(=O)c1cccc([N+](=O)[O-])c1)c1cccc(NC(=O)C2CC2)c1,inactive
7,Cn1c(CN2CCCCC2)nc2cc(NC(=O)c3ccc(F)cc3)ccc21,"inconclusive: 16.4 µM [activator, single point]"
8,CC(CNc1ccccc1O)C(=O)O (stereo not drawn),"inconclusive: 5.17 µM [activator, full curve, poor fit]"
9,O=C(Nc1ccccc1Br)C1CC(=O)N(c2ccc3c4c(cccc24)CC3)C1 (stereo not drawn),"inconclusive: 18.4 µM [activator, single point]"
10,COc1ccc(CCC(=O)Nc2cc(S(=O)(=O)N3CCOCC3)ccc2OC(C)C)cc1,inactive
11,Cc1cc(NC(=O)C2CCCC2)n(-c2nc3ccccc3[nH]2)n1,"inconclusive: 31.6 µM [activator, single point]"
12,O=C(NCC(=O)N(Cc1ccccc1)C(C(=O)NCC1CCCO1)c1ccccc1)c1cccs1 (stereo not drawn),"inconclusive: 13 µM [activator, partial curve, poor fit]"
13,COc1cc(C2Nc3cccc4cccc(c34)N2)cc(OC)c1OC(C)=O,inactive
14,c1ccc2c(c1)nnn2-c1ncnc2sc3c(c12)CCCC3,inactive
15,CC(=O)c1cnn(-c2c(Cl)cc(Cl)cc2Cl)c1C,"inconclusive: 0.411 µM [activator, full curve, poor fit]"
16,CC(C)N1CCc2c(sc(NC(=O)c3nc4ccccc4s3)c2C(N)=O)C1,"inconclusive: 18.4 µM [activator, single point]"
17,COc1ccc(/C=C2\SC(=S)N(CCC(=O)N(CCO)c3ccccc3)C2=O)cc1OC,inactive
18,O=c1ccn([C@@H]2O[C@H](CO)[C@@H](O)[C@H]2O)c(=O)[nH]1,"inconclusive: 1.26 µM [activator, single point]"
19,CC(=O)c1ccc(N2CCN(S(=O)(=O)c3ccc(-c4cc(C)no4)s3)CC2)cc1,"inconclusive: 23.1 µM [activator, single point]"
20,CC1CC(C)CN(S(=O)(=O)c2ccc(C(=O)NCCCn3ccnc3)cc2)C1 (stereo not drawn),"inconclusive: 10.3 µM [activator, partial curve]"
21,C=CCc1c(C)nc(SC)nc1Nc1ccc(C)cc1,"inconclusive: 6.51 µM [activator, single point]"
